Holding throughout (assay type): cell-based
The test system of one assay is A549 cells. Briefly: MTT cytotoxicity assay, A549. As to conditions: Homo sapiens, 48 h, read-out: IC50 (toxicity) A549. The method, then:
(§1) Initially, we adopted the MTT assay to screen the cytotoxicity of all compounds toward three different types of cancer cell lines (HeLa, HepG 2 and A549). […] The chemical structures of the selected compounds are depicted in Figure 2.
(§2) HeLa, Hep G2, and A549 cells were purchased from the Shanghai Institute of Biochemistry and Cell Biology, Chinese Academy of Sciences. All cells were cultured in DMEM with 100 units/mL penicillin/streptomycin, 2 mM glutamine, and 10% FBS in a carbon dioxide atmosphere at 37 °C.
(§3) Cytotoxicity was quantified using a standard MTT assay, which is widely used in evaluating cell proliferation and screening for anticancer drugs. Briefly, following 7 × 10^3 cells incubating in 96-well plates for 48 h filled with DMEM medium supplemented with 10% fetal bovine serum (FBS) containing different concentrations of samples, 10 μL/well of MTT (5 mg/mL) was added. After 4 h of incubation at 37 °C, 100 μL of extraction buffer containing 5% iso-butanol, 0.1% HCl, and 10% SDS was added, and then the cells were incubated overnight. As controls, cells were treated with 0.1% (v/v) DMSO alone. The cell viability was calculated by the absorbance (570 nm) of each well obtained using a microplate reader (Thermo Scientific Multiskan GO, Vantaa, Finland).

The test system of another assay is HepG 2 cells. Briefly: MTT cytotoxicity assay, HepG 2. As to conditions: Homo sapiens, HepG2, 48 h, read-out: IC50 (toxicity) HepG 2. The method, then: as §1, §2, §3
A further assay deals with HeLa cells. As to the kind of experiment: MTT cytotoxicity assay, HeLa. As to conditions: Homo sapiens, 48 h, read-out: IC50 (toxicity) Hela. The method, then:
as §1, §2, §3

For orientation: IC50 means the concentration that inhibits the measured activity by half. Turning to `CCN1CCC[C@H]1CNC(=O)c1ccc2c(c1)NC(=O)/C(=C\c1ccc(OC)c(OC)c1)S2` [K788-8853], the figures for the concentration for half-maximal inhibition (IC50) in the assay with A549 cells, with HepG 2 cells and in the assay on HeLa cells were 10.7 ± 0.5 µM, 12 ± 0.5 µM and 15.1 µM, respectively.

These data come from publication PMC9658052, “Virtual Screening and Biological Activity Evaluation of New Potent Inhibitors Targeting Hexokinase-II” (Molecules, 2022).
